Test results: PubChem BioAssay AID485349 (National Center for Advancing Translational Sciences (NCATS), 2010)
Among all 320,000 compounds or so, about 620 (0.19%) were called active. The shares of active, inactive and inconclusive entries below differ from those in the screen. The call rests on the fitted dose curve; in most records, active means well fitted activation curve with a large enough effect; inconclusive means small, poorly fitted or top-dose-only effect; inactive means no such curve, though single readings can be large or run the other way. Potencies beside an inconclusive call are fits to weak or partial responses and may not hold up.

experiment: qHTS Assay for Identifying a Potential Treatment of Ataxia-Telangiectasia; conditions: […] A-T fibroblasts, KAP-1 phosphorylation AlphaLISA, neocarzinostatin DNA damage 30 min before lysis; series mostly up to 57.5 µM; further: nearly all actives have a fitted effect of over 45% in size
In short: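 hTERT-immortalized A-T patient fibroblasts ([…]), 500 cells/well in OPTI-MEM, 1% FBS, got compounds for 60 min, then NCS for 30 min at 37C. Lysates were then assayed for phospho-KAP-1 by AlphaLISA (anti-pKAP1 donor, anti-KAP1 acceptor beads), 6 hr at 25C.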
Potency means the concentration at half of the fitted maximal effect.

Row | Structure (SMILES) | Potency
1 | CCCCn1c(O)c(/C=C2\C=NN=C2c2ccccc2)sc1=S | inconclusive: 39.8 µM [activator, single point]
2 | COc1ccc(/C=C2\COc3ccccc3C2=O)cc1OC | inconclusive: 31.6 µM [activator, single point]
3 | COc1ccc(C2C(C(=O)c3ccccc3)N3c4ccccc4C=CC3C2[N+](=O)[O-])cc1 (configuration not stated) | inactive
4 | C=CC[C@@H]1Cc2c(Br)ccc(Br)c2[C@@H](CC=C)N1 | active: 39.8 µM
5 | CC(C)CCN(C(=O)CNC(=O)c1cccs1)C(C(=O)NC1CCCCC1)c1cccnc1 (configuration not stated) | active: 17.8 µM
6 | CN1C[C@@H]2C(c3ccccc3)C3(c4ccc(C#N)cc4)CC2(C3)[C@H]1c1ccccc1 (some centres not stated) | inactive
7 | O=C(COc1ccc(Cl)cc1Cl)OCC(=O)c1ccc[nH]1 | inactive
8 | CCCc1cc(-c2nc(-c3ccc(C)cc3)cs2)ccn1 | inconclusive: 25.1 µM [activator, single point]
9 | Cc1[nH]c2ccccc2c1C(C[N+](=O)[O-])c1cccs1 (configuration not stated) | inconclusive: 28.2 µM [activator, single point]
10 | CC(C)NC(=O)c1ccc(C2SCC(=O)N2Cc2ccccc2)cc1 (configuration not stated) | inconclusive: 7.08 µM [activator, partial curve]
11 | COc1ccc(-c2ccc(SCC(=O)NC3CCCC3)nn2)cc1OC | inconclusive: 39.8 µM [activator, partial curve, poor fit]
12 | CN(C)c1cc(Cl)c2nonc2c1N | inactive
13 | O=C1C=CC(=O)N1c1ccc(OC(F)F)cc1 | inconclusive: 4.47 µM [activator, single point]
14 | CC(C)c1cccc(C2=CC(=O)C[C@H](c3ccc(F)cc3)C2)c1 | inconclusive: 39.8 µM [activator, single point]
15 | COc1ccc(-c2nc3ccc(C)cn3c2NCc2ccccc2)cc1SC1CCCCC1 | inconclusive: 14.1 µM [activator, partial curve]
16 | Fc1ccc(C(c2ccc(F)cc2)N2CCN(C/C=C/c3ccccc3)CC2)cc1 | active: 39.8 µM
17 | CCOC(=O)c1ccc(NC(=O)c2nc[nH]c2C(=O)N[C@H](C)c2ccccc2)cc1 | inconclusive: 7.08 µM [activator, single point]
18 | COC(=O)Cn1ccc2cc(S(=O)(=O)N3CCCCC3)ccc21 | inconclusive: 3.16 µM [activator, partial curve]
19 | CCOC(=O)CC(C)(C)/C(C)=N/Nc1ccc([N+](=O)[O-])cc1[N+](=O)[O-] | inactive
20 | CC1CCCCC12NC(=O)N(CC(=O)NCCc1ccc(F)cc1)C2=O (configuration not stated) | inactive
21 | Cc1ccc(NC(=O)c2cccc(Cl)c2)nc1 | inactive
22 | COc1ccc(OC)c(C(=O)CSc2nc3ncccc3[nH]2)c1 | inconclusive: 7.08 µM [activator, single point]
23 | CCCCC(=O)O[C@H]1CC[C@H]2[C@@H]3CCc4cc(O)ccc4[C@H]3CC[C@]12C | inconclusive: 31.6 µM [activator, partial curve, poor fit]
24 | N#C/C(=C\c1ccccc1Cl)C(=O)Nc1ccccn1 | inconclusive: 3.98 µM [activator, single point]

Row | Structure (SMILES) | Potency
25 | CC1CCCCC1NC(=O)CSc1nnc(COc2ccccc2Cl)o1 (configuration not stated) | inconclusive: 25.1 µM [activator, partial curve, poor fit]
26 | CC1=CC(=Nc2c(C)n(C)n(-c3ccccc3)c2=O)C=CC1=O | inconclusive: 20 µM [activator, single point]
27 | COc1ccc(S(=O)(=O)N2CCCCCC2)cc1C(=O)Nc1cc(C)ccn1 | inactive
28 | CCOC(=O)N1CCN(C(=O)Nc2ccc3nc(C)c(C)nc3c2)CC1 | active: 39.8 µM
29 | CCOc1nc(-c2ccc(OC)cc2)ccc1-c1noc(C)n1 | inconclusive: 31.6 µM [activator, single point]
30 | COc1ccccc1N1N=C(c2cccs2)CC1c1ccccc1 (configuration not stated) | active: 15.8 µM
31 | Fc1ccc(C2CC(c3cccs3)=NN2c2ccccc2)cc1 (configuration not stated) | active: 31.6 µM
32 | O=C(c1ccccc1)c1cccc(C(=O)c2ccccc2)c1 | inconclusive: 1.58 µM [activator, full curve, poor fit]
33 | CC(C)c1ccc(C(C(=O)NC2CCCCC2)N(C(=O)c2ccccn2)c2cccnc2)cc1 (configuration not stated) | inconclusive: 10 µM [activator, partial curve]
34 | CC(=O)Nc1ccc(C(=O)COC(=O)c2nc3nc(C)cc(C)n3n2)cc1 | inconclusive: 35.5 µM [activator, single point]
35 | COC(=O)c1cnn(-c2ccc(C(=O)Nc3cccc(C(C)=O)c3)cc2)c1N | active: 28.2 µM
36 | N#CC(Cc1cccc(CC(C#N)(c2ccccc2)c2ccccc2)c1)(c1ccccc1)c1ccccc1 | inconclusive: 39.8 µM [activator, single point]
37 | COc1ccc(NC(=O)CSc2c3c(nc4cc(Cl)ccc24)CCCC3)cc1OC | inconclusive: 39.8 µM [activator, single point]
38 | Cc1ccc(NC(=O)c2ccc(=O)[nH]c2)cc1S(=O)(=O)N1CCCCC1 | inconclusive: 3.16 µM [activator, partial curve]
39 | CCOc1ccc(N(CC(=O)Nc2cccc(N(C)S(C)(=O)=O)c2)S(=O)(=O)c2ccccc2)cc1 | inactive
40 | COCCC(C(=O)Oc1c(C(C)(C)C)cc(C)cc1C(C)(C)C)c1ccccc1 (configuration not stated) | inactive
41 | Cn1cc(CNC(=O)c2cc(-c3ccccc3)nc3ccc(Br)cc23)cn1 | inactive
42 | O=C(CNCc1cccs1)Nc1cc(S(=O)(=O)N2CCCC2)ccc1Cl | active: 3.16 µM
43 | FC(F)(F)c1cccc(N2CCN(CC3CC4C=CC3C4)CC2)c1 (configuration not stated) | inconclusive: 39.8 µM [activator, single point]
44 | O=C(CSc1ccc(-c2ccccn2)nn1)Nc1cccc(F)c1 | inactive
45 | Cc1cc(C(=O)NCCC2=CCCCC2)c(C)o1 | inconclusive: 39.8 µM [activator, single point]
46 | CCc1ccccc1NC(=S)N1CCN(c2ccccc2F)CC1 | inconclusive: 39.8 µM [activator, partial curve, poor fit]
47 | O=C(O)c1ccc(Cn2nnc3sc4c(c3c2=O)CCCC4)cc1 | inactive
48 | COc1ccccc1NC1=C(NC(C)=O)C(=O)c2ccccc2C1=O | inconclusive: 39.8 µM [activator, single point]

A run of entries from the list above:
Row | Structure (SMILES) | Potency
41 | Cn1cc(CNC(=O)c2cc(-c3ccccc3)nc3ccc(Br)cc23)cn1 | inactive
42 | O=C(CNCc1cccs1)Nc1cc(S(=O)(=O)N2CCCC2)ccc1Cl | active: 3.16 µM
43 | FC(F)(F)c1cccc(N2CCN(CC3CC4C=CC3C4)CC2)c1 (configuration not stated) | inconclusive: 39.8 µM [activator, single point]
44 | O=C(CSc1ccc(-c2ccccn2)nn1)Nc1cccc(F)c1 | inactive
45 | Cc1cc(C(=O)NCCC2=CCCCC2)c(C)o1 | inconclusive: 39.8 µM [activator, single point]
46 | CCc1ccccc1NC(=S)N1CCN(c2ccccc2F)CC1 | inconclusive: 39.8 µM [activator, partial curve, poor fit]
47 | O=C(O)c1ccc(Cn2nnc3sc4c(c3c2=O)CCCC4)cc1 | inactive

Further entries

Row | Structure (SMILES) | Potency
49 | O=c1cc(-c2ccccc2Cl)oc2cc(O)cc(O)c12 | inconclusive: 39.8 µM [activator, single point]
50 | CCOc1ccc(C2Nc3ccc4ccccc4c3-c3c2c(=O)oc2ccccc32)cc1 (configuration not stated) | inactive
51 | Cc1ccc(NC2=CC(=O)C(=O)c3ccccc32)cc1 | inactive
52 | CCOC(=O)c1c(C)[nH]c2c1-c1ccccc1C(=O)C2=O | inconclusive: 1.78 µM [activator, full curve, poor fit]
53 | OC[C@H]1O[C@H](OC[C@H]2OC(O)[C@H](O)[C@@H](O)[C@@H]2O)[C@H](O)[C@@H](O)[C@@H]1O (some centres not stated) | inconclusive: 39.8 µM [activator, single point]
54 | CCN(CC)C(=O)C1CC(=O)N(c2ccc(OC)cc2)C1c1ccc(OC)cc1 (configuration not stated) | inconclusive: 3.55 µM [activator, full curve, poor fit]
55 | COc1ccccc1C(=O)NCCOc1ccc(C(C)(C)C)cc1 | inactive
56 | CCc1oc(C(=O)OC)cc1CSC(=N)N | inconclusive: 3.16 µM [activator, partial curve]
57 | CCOC(=O)CN1C(=O)C(=O)N(Cc2c(F)cccc2Cl)C1=O | inconclusive: 0.708 µM [activator, full curve, poor fit]
58 | COC(=O)c1cncc(C)c1 | inconclusive: 39.8 µM [activator, partial curve]
59 | COc1ccc(NC(=S)N(CCCN2CCOCC2)Cc2cn(C)c3ccccc23)cc1OC | inactive
60 | COc1ccccc1NC(=O)COC(=O)c1ccc2c(c1)nc(C)n2-c1ccccc1 | inconclusive: 0.631 µM [activator, full curve, poor fit]
61 | O=C1OC(c2ccccc2)=NC12CC2c1ccc(Cl)cc1 (configuration not stated) | inconclusive: 39.8 µM [activator, single point]
62 | CCOC(=O)c1c(C)oc2c1c(C(c1cccnc1)N1CCOCC1)c(O)c1ccccc12 (configuration not stated) | inconclusive: 35.5 µM [activator, single point]
63 | Cc1ccc(S(=O)(=O)N2CCOCC2)cc1NC(=O)COC(=O)c1ccc(Br)cc1 | inconclusive: 39.8 µM [activator, single point]
64 | Cc1[nH]n(-c2ccc([N+](=O)[O-])cc2)c(=O)c1C=NCCN1CCN(C(=O)c2ccc(F)cc2)CC1 | inactive
65 | CC(=O)Nc1ccc(N(CC(O)Cn2c3ccccc3c3ccccc32)S(=O)(=O)c2ccc(C)cc2)cc1 (configuration not stated) | inactive
66 | COc1cc(C=O)ccc1Oc1nnnn1-c1ccccc1 | inconclusive: 39.8 µM [activator, single point]
67 | CCC(C)Sc1ccc(-c2nc3ccc(C)cn3c2NCc2ccccc2)cc1OC (configuration not stated) | inconclusive: 25.1 µM [activator, partial curve]
68 | Cn1nc(C(F)(F)F)c(/C=N/OC(=O)c2ccccc2)c1SCc1ccc(Cl)cc1 | inactive
69 | CSc1ccccc1C(=O)NC1CCCN(c2ccc(C(F)(F)F)cn2)C1 (configuration not stated) | inactive
70 | COc1ccc(-c2cc(C3CC3)nc3sc(C#N)c(N)c23)cc1 | inactive
71 | CCn1nc(NC(=O)c2ccco2)c2cc3cc(C)ccc3nc21 | inconclusive: 31.6 µM [activator, single point]
72 | O=C(CN1C(=O)c2ccccc2S1(=O)=O)Nc1cccc(S(=O)(=O)N2CCCCC2)c1 | inconclusive: 1.41 µM [activator, partial curve]
